Experimental data: article PMC10715029, “Interaction and assembly of the DNA replication core proteins of Kaposi’s sarcoma-associated herpesvirus” (Microbiology Spectrum, 2023)
No constants are given. Whether binding was seen depends on the method and setting. For some of these results: In cells and extracts the contact can be indirect. Some results given as binding are weak or reduced against the parent protein; the word gives no strength. For some of these results: Where a sequence is shown, tags or fusion partners need not be part of it.

T1: GAL4-ORF6 (Kaposi's sarcoma-associated herpesvirus (KSHV, human herpesvirus 8)) (UniProt Q2HRD3)
T1 sequence: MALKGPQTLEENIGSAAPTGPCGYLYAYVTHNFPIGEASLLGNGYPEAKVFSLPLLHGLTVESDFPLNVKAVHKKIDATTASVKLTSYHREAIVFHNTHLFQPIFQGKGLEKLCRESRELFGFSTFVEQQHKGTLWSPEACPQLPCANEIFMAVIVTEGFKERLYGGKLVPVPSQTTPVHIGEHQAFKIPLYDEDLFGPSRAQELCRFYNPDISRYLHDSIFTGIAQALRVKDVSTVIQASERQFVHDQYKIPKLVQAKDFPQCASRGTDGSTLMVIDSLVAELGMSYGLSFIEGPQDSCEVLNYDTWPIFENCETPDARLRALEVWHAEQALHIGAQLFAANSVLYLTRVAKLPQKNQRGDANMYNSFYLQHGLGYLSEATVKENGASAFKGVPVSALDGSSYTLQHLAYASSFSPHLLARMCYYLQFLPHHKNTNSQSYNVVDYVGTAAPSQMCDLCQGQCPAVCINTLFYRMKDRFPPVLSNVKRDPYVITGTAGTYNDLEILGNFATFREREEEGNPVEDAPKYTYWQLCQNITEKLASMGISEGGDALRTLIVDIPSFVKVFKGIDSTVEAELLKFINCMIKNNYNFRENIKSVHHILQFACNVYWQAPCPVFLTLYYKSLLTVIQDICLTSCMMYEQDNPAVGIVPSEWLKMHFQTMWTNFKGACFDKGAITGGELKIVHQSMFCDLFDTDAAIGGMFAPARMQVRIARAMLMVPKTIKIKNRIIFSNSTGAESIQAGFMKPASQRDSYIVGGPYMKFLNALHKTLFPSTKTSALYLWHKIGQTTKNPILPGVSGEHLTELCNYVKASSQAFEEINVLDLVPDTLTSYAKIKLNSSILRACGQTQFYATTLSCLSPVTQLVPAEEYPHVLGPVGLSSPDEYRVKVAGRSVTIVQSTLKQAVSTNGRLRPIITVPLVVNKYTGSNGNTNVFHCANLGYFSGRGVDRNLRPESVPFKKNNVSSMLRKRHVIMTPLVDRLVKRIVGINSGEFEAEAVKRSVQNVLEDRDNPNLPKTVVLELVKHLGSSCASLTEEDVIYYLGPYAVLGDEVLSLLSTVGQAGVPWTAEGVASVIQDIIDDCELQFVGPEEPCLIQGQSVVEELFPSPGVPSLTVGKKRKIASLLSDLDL

T2: GFP-ORF9 (Kaposi's sarcoma-associated herpesvirus (KSHV, human herpesvirus 8)) (UniProt Q2HRD0)
T2 sequence: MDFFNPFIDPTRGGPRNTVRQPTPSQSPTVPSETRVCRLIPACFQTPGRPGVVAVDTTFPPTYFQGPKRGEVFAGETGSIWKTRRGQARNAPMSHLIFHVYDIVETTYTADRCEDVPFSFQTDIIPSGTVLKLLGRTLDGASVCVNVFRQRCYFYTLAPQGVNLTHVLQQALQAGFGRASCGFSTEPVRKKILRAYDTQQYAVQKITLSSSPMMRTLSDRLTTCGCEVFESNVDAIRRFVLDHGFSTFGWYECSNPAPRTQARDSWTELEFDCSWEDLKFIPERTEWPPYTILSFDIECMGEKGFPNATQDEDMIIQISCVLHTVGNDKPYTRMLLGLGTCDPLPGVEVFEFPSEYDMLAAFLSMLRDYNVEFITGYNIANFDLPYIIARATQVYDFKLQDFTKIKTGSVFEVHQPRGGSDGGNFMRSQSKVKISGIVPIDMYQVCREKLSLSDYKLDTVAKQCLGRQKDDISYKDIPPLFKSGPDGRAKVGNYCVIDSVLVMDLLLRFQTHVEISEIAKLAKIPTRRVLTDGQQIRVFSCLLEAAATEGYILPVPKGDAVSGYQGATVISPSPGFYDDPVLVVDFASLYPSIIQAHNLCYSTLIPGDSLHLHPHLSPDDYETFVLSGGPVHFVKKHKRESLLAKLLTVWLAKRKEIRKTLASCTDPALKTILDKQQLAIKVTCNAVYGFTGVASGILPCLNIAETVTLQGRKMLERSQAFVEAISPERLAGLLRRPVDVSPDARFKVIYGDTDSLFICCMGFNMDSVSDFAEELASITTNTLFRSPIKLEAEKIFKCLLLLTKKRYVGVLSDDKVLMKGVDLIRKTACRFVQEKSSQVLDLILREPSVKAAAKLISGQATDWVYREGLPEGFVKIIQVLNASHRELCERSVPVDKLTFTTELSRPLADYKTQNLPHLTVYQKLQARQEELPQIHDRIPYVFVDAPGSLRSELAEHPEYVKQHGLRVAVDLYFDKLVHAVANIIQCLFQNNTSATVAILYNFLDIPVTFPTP

T3: GFP-ORF40/41 (Kaposi's sarcoma-associated herpesvirus (KSHV, human herpesvirus 8)) (UniProt Q2HR92)
T3 sequence: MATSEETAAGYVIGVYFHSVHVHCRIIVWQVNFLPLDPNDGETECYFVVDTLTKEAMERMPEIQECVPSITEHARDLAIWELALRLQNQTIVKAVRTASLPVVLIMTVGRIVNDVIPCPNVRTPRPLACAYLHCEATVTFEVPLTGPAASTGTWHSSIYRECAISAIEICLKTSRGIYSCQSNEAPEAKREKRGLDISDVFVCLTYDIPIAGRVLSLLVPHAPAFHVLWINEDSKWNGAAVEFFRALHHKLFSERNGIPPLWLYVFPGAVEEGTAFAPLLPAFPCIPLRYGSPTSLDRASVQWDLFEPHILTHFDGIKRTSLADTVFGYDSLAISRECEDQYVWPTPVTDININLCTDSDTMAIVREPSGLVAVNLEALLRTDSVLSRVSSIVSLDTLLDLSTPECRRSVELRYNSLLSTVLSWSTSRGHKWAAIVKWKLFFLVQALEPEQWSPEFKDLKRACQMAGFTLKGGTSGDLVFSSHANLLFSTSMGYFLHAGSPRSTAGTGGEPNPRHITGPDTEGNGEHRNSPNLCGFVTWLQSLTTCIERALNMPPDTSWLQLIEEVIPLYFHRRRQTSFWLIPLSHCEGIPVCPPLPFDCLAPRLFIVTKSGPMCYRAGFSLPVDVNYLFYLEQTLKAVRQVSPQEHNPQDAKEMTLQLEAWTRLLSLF

T4: GFP-ORF44 (Kaposi's sarcoma-associated herpesvirus (KSHV, human herpesvirus 8)) (UniProt Q2HR89)
T4 sequence: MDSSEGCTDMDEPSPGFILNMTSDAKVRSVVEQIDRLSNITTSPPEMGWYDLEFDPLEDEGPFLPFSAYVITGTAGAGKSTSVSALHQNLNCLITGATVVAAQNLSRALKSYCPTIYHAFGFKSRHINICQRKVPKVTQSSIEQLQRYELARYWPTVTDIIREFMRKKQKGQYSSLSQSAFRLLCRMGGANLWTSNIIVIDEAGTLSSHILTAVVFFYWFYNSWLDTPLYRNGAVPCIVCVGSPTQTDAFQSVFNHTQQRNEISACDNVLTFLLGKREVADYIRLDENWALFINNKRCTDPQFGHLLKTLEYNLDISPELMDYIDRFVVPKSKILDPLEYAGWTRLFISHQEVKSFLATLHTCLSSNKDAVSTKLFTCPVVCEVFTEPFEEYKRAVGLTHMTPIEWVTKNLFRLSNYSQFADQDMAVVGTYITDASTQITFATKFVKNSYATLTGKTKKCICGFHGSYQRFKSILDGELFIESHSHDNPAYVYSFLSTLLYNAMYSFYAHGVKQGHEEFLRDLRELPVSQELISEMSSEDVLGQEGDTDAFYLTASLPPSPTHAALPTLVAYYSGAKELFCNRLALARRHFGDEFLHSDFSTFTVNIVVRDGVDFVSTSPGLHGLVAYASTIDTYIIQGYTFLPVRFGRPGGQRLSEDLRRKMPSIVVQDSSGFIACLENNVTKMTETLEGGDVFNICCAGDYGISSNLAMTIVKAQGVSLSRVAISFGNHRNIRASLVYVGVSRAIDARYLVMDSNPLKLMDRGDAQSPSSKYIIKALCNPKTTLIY


What was measured:
[1] = target: T1, GAL4-ORF6 (Kaposi's sarcoma-associated herpesvirus (KSHV, human herpesvirus 8)); experiment: two-hybrid; mammalian two-hybrid (GAL4/VP16) in 293T cells, pGal4(5×)-Luc reporter, GAL4 and VP16 fusions coexpressed with further FLAG-tagged core replication proteins, luciferase at 24 h, fold activation over empty vector; radicicol (0.25-1 µM) inhibited the activation by GAL4-ORF56, VP16-ORF44 and F-ORF40/41 dose-dependently
[2] = target: T2, GFP-ORF9 (Kaposi's sarcoma-associated herpesvirus (KSHV, human herpesvirus 8)); experiment: co-IP; 293T cells cotransfected with a GFP fusion and FLAG-tagged proteins for 24 h; lysis in 50 mM Tris-HCl pH 7.6, 150 mM NaCl, 1 mM EDTA, 1% Triton X-100, 1 mM PMSF; precipitation with GFP-Trap MA beads; blots with anti-GFP and anti-FLAG
[3] = target: T3, GFP-ORF40/41 (Kaposi's sarcoma-associated herpesvirus (KSHV, human herpesvirus 8)); experiment: as above
[4] = target: T4, GFP-ORF44 (Kaposi's sarcoma-associated herpesvirus (KSHV, human herpesvirus 8)); experiment: as above

Binder	binding [1]	binding [2]	binding [3]	binding [4]
VP16-ORF9 (protein, UniProt Q2HRD0 1-1012) MDFFNPFIDPTRGGPRNTVRQPTPSQSPTVPSETRVCRLIPACFQTPGRPGVVAVDTTFPPTYFQGPKRGEVFAGETGSIWKTRRGQARNAPMSHLIFHVYDIVETTYTADRCEDVPFSFQTDIIPSGTVLKLLGRTLDGASVCVNVFRQRCYFYTLAPQGVNLTHVLQQALQAGFGRASCGFSTEPVRKKILRAYDTQQYAVQKITLSSSPMMRTLSDRLTTCGCEVFESNVDAIRRFVLDHGFSTFGWYECSNPAPRTQARDSWTELEFDCSWEDLKFIPERTEWPPYTILSFDIECMGEKGFPNATQDEDMIIQISCVLHTVGNDKPYTRMLLGLGTCDPLPGVEVFEFPSEYDMLAAFLSMLRDYNVEFITGYNIANFDLPYIIARATQVYDFKLQDFTKIKTGSVFEVHQPRGGSDGGNFMRSQSKVKISGIVPIDMYQVCREKLSLSDYKLDTVAKQCLGRQKDDISYKDIPPLFKSGPDGRAKVGNYCVIDSVLVMDLLLRFQTHVEISEIAKLAKIPTRRVLTDGQQIRVFSCLLEAAATEGYILPVPKGDAVSGYQGATVISPSPGFYDDPVLVVDFASLYPSIIQAHNLCYSTLIPGDSLHLHPHLSPDDYETFVLSGGPVHFVKKHKRESLLAKLLTVWLAKRKEIRKTLASCTDPALKTILDKQQLAIKVTCNAVYGFTGVASGILPCLNIAETVTLQGRKMLERSQAFVEAISPERLAGLLRRPVDVSPDARFKVIYGDTDSLFICCMGFNMDSVSDFAEELASITTNTLFRSPIKLEAEKIFKCLLLLTKKRYVGVLSDDKVLMKGVDLIRKTACRFVQEKSSQVLDLILREPSVKAAAKLISGQATDWVYREGLPEGFVKIIQVLNASHRELCERSVPVDKLTFTTELSRPLADYKTQNLPHLTVYQKLQARQEELPQIHDRIPYVFVDAPGSLRSELAEHPEYVKQHGLRVAVDLYFDKLVHAVANIIQCLFQNNTSATVAILYNFLDIPVTFPTP	no binding			
VP16-ORF6 (natural protein, source: 293T, transfected, mammalian two-hybrid fusion) MALKGPQTLEENIGSAAPTGPCGYLYAYVTHNFPIGEASLLGNGYPEAKVFSLPLLHGLTVESDFPLNVKAVHKKIDATTASVKLTSYHREAIVFHNTHLFQPIFQGKGLEKLCRESRELFGFSTFVEQQHKGTLWSPEACPQLPCANEIFMAVIVTEGFKERLYGGKLVPVPSQTTPVHIGEHQAFKIPLYDEDLFGPSRAQELCRFYNPDISRYLHDSIFTGIAQALRVKDVSTVIQASERQFVHDQYKIPKLVQAKDFPQCASRGTDGSTLMVIDSLVAELGMSYGLSFIEGPQDSCEVLNYDTWPIFENCETPDARLRALEVWHAEQALHIGAQLFAANSVLYLTRVAKLPQKNQRGDANMYNSFYLQHGLGYLSEATVKENGASAFKGVPVSALDGSSYTLQHLAYASSFSPHLLARMCYYLQFLPHHKNTNSQSYNVVDYVGTAAPSQMCDLCQGQCPAVCINTLFYRMKDRFPPVLSNVKRDPYVITGTAGTYNDLEILGNFATFREREEEGNPVEDAPKYTYWQLCQNITEKLASMGISEGGDALRTLIVDIPSFVKVFKGIDSTVEAELLKFINCMIKNNYNFRENIKSVHHILQFACNVYWQAPCPVFLTLYYKSLLTVIQDICLTSCMMYEQDNPAVGIVPSEWLKMHFQTMWTNFKGACFDKGAITGGELKIVHQSMFCDLFDTDAAIGGMFAPARMQVRIARAMLMVPKTIKIKNRIIFSNSTGAESIQAGFMKPASQRDSYIVGGPYMKFLNALHKTLFPSTKTSALYLWHKIGQTTKNPILPGVSGEHLTELCNYVKASSQAFEEINVLDLVPDTLTSYAKIKLNSSILRACGQTQFYATTLSCLSPVTQLVPAEEYPHVLGPVGLSSPDEYRVKVAGRSVTIVQSTLKQAVSTNGRLRPIITVPLVVNKYTGSNGNTNVFHCANLGYFSGRGVDRNLRPESVPFKKNNVSSMLRKRHVIMTPLVDRLVKRIVGINSGEFEAEAVKRSVQNVLEDRDNPNLPKTVVLELVKHLGSSCASLTEEDVIYYLGPYAVLGDEVLSLLSTVGQAGVPWTAEGVASVIQDIIDDCELQFVGPEEPCLIQGQSVVEELFPSPGVPSLTVGKKRKIASLLSDLDL		no binding	binds	no binding
